Test results taken from patent US20110245473A1.

Chains of the proteins cited; added tags and fusions are not shown. Lines headed by an entry give the natural chain unless they say otherwise; changes in a name come on top.
UniProt P08887: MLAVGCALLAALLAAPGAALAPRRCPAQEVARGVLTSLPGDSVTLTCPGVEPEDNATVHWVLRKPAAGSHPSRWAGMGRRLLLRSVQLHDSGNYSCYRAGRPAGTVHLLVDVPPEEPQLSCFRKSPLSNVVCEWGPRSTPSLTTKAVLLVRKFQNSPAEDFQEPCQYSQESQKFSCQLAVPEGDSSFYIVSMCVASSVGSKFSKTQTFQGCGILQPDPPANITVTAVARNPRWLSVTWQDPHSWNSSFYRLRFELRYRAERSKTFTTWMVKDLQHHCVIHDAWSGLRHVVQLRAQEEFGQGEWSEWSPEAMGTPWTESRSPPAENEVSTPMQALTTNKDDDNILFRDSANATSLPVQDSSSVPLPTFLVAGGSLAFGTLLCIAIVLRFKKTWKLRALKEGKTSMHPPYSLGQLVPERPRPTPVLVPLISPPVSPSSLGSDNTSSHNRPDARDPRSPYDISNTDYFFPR

Experiments:
[1] = molecular target: SR344 (soluble human IL-6R, N-terminal 1st to 344th amino acids) (human) (UniProt P08887); test: SPR (Biacore T100, 37 °C): antibody captured on Protein A/G, SR344 as analyte
[2] = molecular target: SR344 (soluble human IL-6R, N-terminal 1st to 344th amino acids) (human) (UniProt P08887); test: SPR (Biacore T100), antibody captured on Protein A/G, SR344 as analyte, 37°C

B3: PF1 antibody (antibody, IgG1, V domains shown)
VH: QVQLQESGPGLVKPSETLSLTCAVSGYSISDDHAWSWVRQPPGEGLEWIGYISYSGITNYNPSLKGRVTISRDTSKNQFSLKLSSVTAADTAAYYCARVLARITAMDYWGEGTLVTVSS
VL: DIQMTQSPSSLSASVGDSVTITCQASQDISSYLNWYQQKPGKAPELLIYYGSELHSGVPSRFSGSGSGTDFTFTISSLEAEDAATYYCGQGNRLPYTFGQGTKVEIE
binding [2]: binds | binding [1]: binds

B4: F2H/L39-IgG1 (antibody, V domains shown)
VH: QVQLQESGPGLVKPSETLSLTCAVSGYSISDDHAWSWVRQPPGEGLEWIGYISYSGITNYNPSLQDRVTISRDNSKNTLYLQMNSLRAEDTAVYYCARLLARATAMDYWGQGILVTVSS
VL: DIQMTQSPSSLSASVGDSVTITCQASEDISSYLNWYQQKPGKAPELLIYYGSELESGVPSRFSGSGSGTDFTFTISSLEAEDAATYYCGQGNRLPYTFGQGTKVEIER
binding [2]: binds

The next lines start with the values.

binding [1]: binds
B1: RDC-23 (antibody, V domains shown)
VH: QVQLQESGPGLVRPSQTLSLTCTVSGYSITSDHAWSWVRQPPGRGLEWIGYISYSGITTYNPSLKSRVTMLRDTSKNQFSLRLSSVTAADTAVYYCARVLARITAMDYWGQGSLVTVSS
VL: B3 VL with S18R, Q24R, E45K, G51T, E53R, E79Q, A80P, A83I, E107K

binding [2]: binds
B2: H96/PF1L-IgG1 (antibody, V domains shown)
VH: B4 VH with Q65K, D66G, L99V, A103I, Q111E, I113T
VL: B3 VL

Changes are numbered by the printed parent chain. In names and notes the source's numbering stands. Results are given in words; binding and its absence hold for the method and conditions named. A result given as binding can be weak or reduced; the word gives no strength. Each block holds one binder with its values, some of them ahead of it.
